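Phenotypic screen: M. tuberculosis growth, glucose 7H9 medium, 3 days; the read-out is not stated. Compounds at 500 µM. The record gives no direction; compounds that gave an IC50 in retests scored well above the rest, so higher reads as more growth inhibition. Of about 18,000 compounds tested this way, about 1,400 (7.9%) reached 50% or more in at least one test.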

Values are the deposited “Percent Effect”, in %. The controls that fix the scale are not given in the record; negative values are as filed. Compounds were drawn at random from those tested, without regard to their results.

SMILES | effect
CC1(CCCO)CCCN1 (stereo not shown) | 3.251%
Cc1ccc(OCC(=O)Nc2nnn(C)n2)cc1 | 57.71%
CNC(=O)c1cc(C)n(C)n1 | 12.18%
Cn1nccc1[C@H]1OCC[C@@H]1N | -4.427%
NC(CO)c1c(Cl)cccc1Cl (stereo not shown) | 2.109%
Cc1nc(CNC(=O)CC2=CCCCC2)no1 | 51.14%
NCC(c1ccco1)N1CCCCC1 (stereo not shown) | 4.159%
N#Cc1ccnc(N2CCN(S(N)(=O)=O)CC2)c1 | 18.39%
CC(C)(O)CN1CCN(Cc2ccc(N)nc2)CC1 | -3.051%
CC(=O)c1ccncn1 | -1.313%
CN1CCOC(C(=O)N(C)Cc2cccc(O)c2)C1 (stereo not shown) | 3.554%
Cc1cc(C(=O)NC(C)(C)CO)cc(C)c1F | 22.79%
CC(Cc1ccccc1F)C(=O)N1CC[C@H](O)C1 (stereo partly shown) | 17.8%
CCC(=O)NC1CCCc2occc21 (stereo not shown) | 12.08%
Cc1nn(C)c(C)c1NC(=O)NCCc1c[nH]cn1 | 8.635%
Cc1nn(C)c(C)c1C(C)NC(=O)C1CC1 (stereo not shown) | -1.224%
Cc1csc2nc(CSCCS(C)(=O)=O)cc(=O)n12 | 1.084%
CCn1cnnc1SC | -0.8153%
CN(C)c1cc(CNC(=O)CCc2ccco2)ccn1 | 25.91%
Cn1ncc2c(N3CCCC3)nc(NCCO)nc21 | 7.735%
COc1c(C)cnc(CNC(=O)CSC)c1C | 12.57%
c1cnc(NCc2ccnc(N3CCOCC3)c2)nc1 | 9.012%
COC(C)CCNC(=O)[C@@H](O)c1ccccc1 (stereo partly shown) | -0.4181%
CCc1nc(CCNC(=O)CN2CCC(O)CC2)cs1 | 8.327%
O=C(NCCNCc1ccc(F)cc1)c1ccco1 | -4.782%
Cc1cccc2c1OCCC2N (stereo not shown) | 4.061%
CN1CC2(CCN(CCCn3cccc3)CC2)OC1=O | -9.31%
CC(CNC(=O)c1ccc(Cl)cn1)Cn1ccnc1 (stereo not shown) | 81.97%
CS(=O)(=O)NCCNCc1cccc(-n2cccn2)c1 | 15.38%
CN(Cc1cccc(C(N)=O)c1)C(=O)c1occc1Br | 53.89%
COC(=O)c1cc(F)c[nH]1 | 4.902%
COC(=O)NC(C)C(=O)NCCCc1nc(C)cs1 (stereo not shown) | 1.709%
CC(C)(C)CCS(=O)(=O)N1CCCC1C(N)=O (stereo not shown) | 0.7433%
COCC(C)NS(=O)(=O)c1ncn(C)c1Cl (stereo not shown) | 5.764%
O=C(CCc1ccccc1O)NC1CCN(C2CC2)C1 (stereo not shown) | 36.76%
CC(OCCCN)c1ccccc1 (stereo not shown) | 13.17%
O=C(NCC(O)C1CC1)c1cc(O)ccc1Cl (stereo not shown) | 0.8229%
O=C(C1CCS(=O)(=O)C1)N(CC(F)(F)F)C1CCCC1 (stereo not shown) | -12.76%
CCc1nc(CN2CCN(c3cnccn3)CC2)n[nH]1 | -6.479%
NCC(=O)Nc1ccc2c[nH]nc2c1 | 4.138%
CNC(=O)NC(=O)CN(C)CCOc1cccc(F)c1 | 30.39%
CC(=O)c1cc(CN2CC(N3CCOCC3)C2)cs1 | 15.42%
O=C(NCCn1cccc1)c1ccc(Cl)cn1 | 85.22%
CCCC(=O)NCCCNC(=O)c1ccc(C)nc1 | 17.62%
CN(CC(N)=O)Cc1cc(Br)c2c(c1)OCO2 | 40.79%
CN(Cc1ccc(-n2cccn2)cc1)C(=O)[C@@H]1CCN1 | 27.53%
CCN1CCCN(C(=O)Nc2ccccc2)CC1 | 13.5%
CNC(=O)Cn1cc(-c2ccc3c(c2)OCO3)cn1 | -15.57%
COc1ccccc1OCCN1CCC(O)CC1 | 3.499%
CC1(C2CCCN(C(=O)c3ccncc3)C2)OCCO1 (stereo not shown) | 0.02987%
C[C@@H](C(=O)NCc1cccc(Cl)c1)n1cnnn1 | 18.61%
Cc1ccsc1C(=O)NCc1ccnc(N(C)C)c1 | 42.41%
O=C(CO)NC1CCN(Cc2cc(Cl)cc(Cl)c2)CC1 | 4.157%
CNC(=O)CCN1CCC(OCC2CCCCO2)CC1 (stereo not shown) | -3.054%
CC(C(=O)Nc1ccc2ccccc2n1)S(C)(=O)=O (stereo not shown) | 28.91%
COc1ncccc1-c1csc(NCCSC)n1 | 50.32%
NCC1CCN(Cc2cccc(F)c2)CC1 | 2.874%
CO[C@H]1CN(C(C)C)C[C@@H]1NC(=O)c1nc(C)c[nH]1 | 1.894%
CC(C#N)CNC(=O)c1c(O)cc(F)cc1F (stereo not shown) | 17%
CC(=O)c1c[nH]c(C(=O)NCCCNS(C)(=O)=O)c1 | -0.5346%
CNC(=O)C1CCCN1Cc1cccc(N(C)C)c1 (stereo not shown) | 16.18%
COc1ccccc1C(N)c1ccccn1 (stereo not shown) | 59.12%

The last 6 entries again:

SMILES	effect
NCC1CCN(Cc2cccc(F)c2)CC1	2.874%
CO[C@H]1CN(C(C)C)C[C@@H]1NC(=O)c1nc(C)c[nH]1	1.894%
CC(C#N)CNC(=O)c1c(O)cc(F)cc1F (stereo not shown)	17%
CC(=O)c1c[nH]c(C(=O)NCCCNS(C)(=O)=O)c1	-0.5346%
CNC(=O)C1CCCN1Cc1cccc(N(C)C)c1 (stereo not shown)	16.18%
COc1ccccc1C(N)c1ccccn1 (stereo not shown)	59.12%

Source: ChEMBL document CHEMBL3988442, “University of Dundee, Small-Polar-MMV Screening Library” (2021).